According to paper PMC5680568:
These are yes or no findings as the source states them, for the method shown. Binding seen in cells or lysates may run through a third protein. Some entries that bind do so weakly or less than the wild type.

Biological target: MCL-1 (human (endogenous in RH30 and RD)), Q07820
Test: co-IP; endogenous MCL-1 immunoprecipitated from 500 μl lysate (up to 1000 μg protein) overnight at 4 °C with 2 μg/ml mouse anti-MCL-1 antibody and pan-mouse IgG or Protein G Dynabeads, washed with CHAPS buffer; NOXA detected by Western blot; RH30 (18 h) and RD (24 h) cells treated with 1 μM AUR and/or 1 μM BSO and/or ERA (RH30: 1 μM, RD: 2 μM)
Conditions: remark: other sources report otherwise

B1: NOXA, Q13794 1-54 (protein)
chain: MPGKKARKNAQPSPARAPAELEVECATQLRRFGDKLNFRQKLLNLISKLFCSGT
  binding: binds
